Experimental data as given in PubChem BioAssay AID540276 (National Center for Advancing Translational Sciences (NCATS), 2011).
About 5,400 (1.8%) of roughly 300,000 compounds were called active. Inconclusive means that the source gave no clear call. Such entries were picked first, then a sample of the others. Calls follow the shape of the full dose curve; tested in HEK293 cells. Potencies of inconclusive entries are doubtful fits and often do not repeat.

assay: qHTS for inhibitors of binding or entry into cells for Marburg Virus; conditions: Marburg virus pseudotyped entry inhibition, cell reporter; series mostly up to 37.8 µM
Potency is read from the fitted curve at half-maximal effect.

Compound	Potency
COc1ccc(C(=O)NCCNc2nc3cc(C)c(C)cc3cc2C)cc1	inconclusive: 11.2 µM [activator, partial curve, poor fit]
NNC(=O)CCCNc1ncc(C(F)(F)F)cc1Cl	inconclusive: 3.16 µM [inhibitor, single point]
O=C1N2c3ccccc3CCc3cccc(c32)C1(O)C(F)(F)F (configuration not stated)	inconclusive: 0.651 µM [inhibitor, full curve, poor fit]
CCOC(=O)c1cc2c(=O)n3ccccc3nc2n(CC2CCCO2)c1=NC(=O)c1ccc(F)cc1 (configuration not stated)	inactive
N#CC1=C(N)NC(SCC(=O)Nc2ccc(Br)cc2)=C(C#N)C12CCCCC2	inconclusive: 35.5 µM [inhibitor, single point]
CSCCC(NC(=O)OC(C)(C)C)C(=O)Oc1ccc2c(=O)c(-c3ccc4c(c3)OCCO4)coc2c1 (configuration not stated)	inconclusive: 29.1 µM [inhibitor, single point]
COc1ccc(-c2nnc(SCC(=O)Oc3cc(C)ccc3C)o2)cc1	inactive
CC(=O)N1N=C(c2ccccc2)CC1c1cccs1 (configuration not stated)	inactive
O=C(NC1CCCCC1)C(c1ccc2ncccc2c1)N(Cc1ccccc1)C(=O)c1cccs1 (configuration not stated)	active: 5.8 µM
C=CCn1c(NC(=O)c2ccc(C)cc2)nc2ccccc21	inconclusive: 10 µM [activator, partial curve, poor fit]
O=C(NC(=S)Nc1ccc(N2CCCCC2)cc1)c1cccs1	inconclusive: 29.1 µM [inhibitor, single point]
CCn1c(=N)n(CC(O)COc2ccc(C)cc2)c2ccccc21 (configuration not stated)	inconclusive: 10 µM [inhibitor, partial curve, poor fit]
O=[N+]([O-])c1cccc(/C=N/N=C\c2ccccc2)c1	inconclusive: 35.5 µM [activator, single point]
FC(F)(F)c1cccc(-n2c(Cn3nnc4ccccc43)n[nH]c2=S)c1	inactive
CCOC(=O)CNC(=O)c1sc(NC(=O)c2ccccc2F)nc1C	inconclusive: 2.06 µM [activator, partial curve, poor fit]
O=c1[nH]c2ccccc2c(O)c1Cc1ccccc1	inconclusive: 11.2 µM [activator, partial curve, poor fit]
O=C(CN1CCN(C(=O)c2ccco2)CC1)Nc1cc(C(F)(F)F)ccc1Cl	inactive
CCOc1ccc(N=Cc2c(O)n(CCc3ccc(OC)c(OC)c3)c(=O)[nH]c2=O)cc1	inconclusive: 1.58 µM [inhibitor, partial curve, poor fit]
Cc1cccc(N2CCN(C(=O)Cc3ccc(Br)cc3)CC2)c1C	inactive
Nc1nc(NC(=O)c2cccc(S(=O)(=O)N3CCCCCC3)c2)nc(-c2ccccc2)n1	inconclusive: 35.5 µM [inhibitor, single point]
CCc1nnc(NC(=O)CSc2nnc(CCc3nc4ccccc4[nH]3)n2C)s1	inconclusive: 35.5 µM [activator, single point]
CCCn1c(NCc2ccccc2F)nc2ccccc21	inactive
Cc1noc(NC(=O)c2ccc(Cl)cc2)c1Cl	inactive

Compound	Potency
COC(=O)c1ccc2nc(NC(=O)C3CCCCC3)sc2c1	inconclusive: 0.116 µM [activator, full curve, poor fit]
COc1ccccc1C=CC1=CC2(C)CC1(C)C(c1ccccc1OC)CC2=O (configuration not stated)	inactive
CCCCCCOC(=O)CC1CC(C(C)=O)C1(C)C (configuration not stated)	inactive
Cc1ccc2[nH]c(C)c(CC(=O)O)c2c1	inactive
COc1cc(C(=O)Nc2c(C(=O)Nc3ccccc3F)oc3ccccc23)cc(OC)c1OC	inactive
O[C@H](CC#CCOc1ccccc1)COCc1ccccc1	inconclusive: 1.5 µM [activator, partial curve, poor fit]
CCCCCC(=O)N/N=C/c1ccc(N(C)C)cc1	inconclusive: 0.708 µM [activator, full curve, poor fit]
O=C(Oc1ccc(Br)cc1)c1cccnc1	inconclusive: 17.8 µM [activator, single point]
O=C1CCC(=O)c2ccc3c4c(ccc1c24)CC3	inconclusive: 3.16 µM [activator, single point]
CCOc1cc(/C=N/O)ccc1OS(=O)(=O)c1ccc(C)cc1	inconclusive: 39.8 µM [inhibitor, partial curve, poor fit]
COc1ccc(N2CCN(C(=O)c3cc4cc(Cl)ccc4[nH]3)CC2)cc1	inactive
COCCn1c(C)cc(C(=O)CSc2nc3ccccc3c(=O)n2Cc2ccco2)c1C	inconclusive: 2.91 µM [activator, full curve, poor fit]
COc1cc(/C=C/C(=O)Nc2ccc(OC)c(S(=O)(=O)N3CCOCC3)c2)ccc1OC(F)F	inconclusive: 3.98 µM [inhibitor, partial curve, poor fit]
CCOC(=O)c1csc(Nc2nc3ccc(F)cc3s2)n1	inconclusive: 6.51 µM [inhibitor, partial curve, poor fit]
COc1ccc(/C(C)=N/Nc2nc(C)cc(-c3ccccc3)n2)cc1	active: 2.51 µM
COc1cccc([C@H]2Oc3ccc(OC)cc3C(=NO[C@H](C)c3cn([C@H](CO)Cc4ccccc4)nn3)[C@H]2O)c1	inconclusive: 5.96 µM [activator, single point]
COc1ccc(Cn2c(=O)c3ccccc3n3c(-c4ccc(C)cc4)nnc23)cc1	inconclusive: 3.98 µM [activator, single point]
C[C@@H]1CN(C2CCN(C(=O)c3ccccc3)CC2)C[C@H](C)O1	inactive
O=C(CSc1nc2ccccc2[nH]1)N/N=C/C=C\c1ccccc1[N+](=O)[O-]	inconclusive: 6.31 µM [activator, single point]
[S-]C(=Nc1ccc(Cl)cc1)N[n+]1ccccc1	inconclusive: 3.66 µM [activator, full curve, poor fit]
CCOC(=O)C1=C(N)OC2=C(C(=O)CCC2)C12C(=O)N1c3c(ccc(C)c32)C(C)=CC1(C)C (configuration not stated)	inconclusive: 0.058 µM [inhibitor, full curve, poor fit]
COc1ccccc1NC(=S)N(CCCN1CCOCC1)Cc1cccs1	inconclusive: 1.78 µM [inhibitor, partial curve, poor fit]
CCCOP(=O)(c1ccc(N(C)C)cc1)C(Nc1ccccc1)c1ccc(C)cc1 (configuration not stated)	inconclusive: 11.2 µM [inhibitor, partial curve, poor fit]

Compound	Potency
CC(=O)c1cccc(CN2CCCC(C(=O)Nc3cccc(-n4cccn4)c3)C2)c1 (configuration not stated)	inconclusive: 35.5 µM [inhibitor, single point]
CC1CCCCC1NC(=O)CSC1=Nc2ccccc2C2CC=NN12 (configuration not stated)	inconclusive: 8.91 µM [inhibitor, partial curve, poor fit]
CCCNCc1cc(OC)c(OCC(=O)Nc2ccccc2)cc1Br	inconclusive: 22.4 µM [inhibitor, partial curve, poor fit]
CCn1c(SCc2nc(-c3cccs3)no2)nnc1-c1c[nH]c2ccccc12	inconclusive: 22.4 µM [inhibitor, single point]
CCOc1ccc2nc(Nc3nc(CSc4nnnn4-c4ccccc4)cc(=O)[nH]3)nc(C)c2c1	inconclusive: 10.3 µM [inhibitor, partial curve, poor fit]
CC(C)OC(=O)CSc1nnc(CNc2cccc(Cl)c2)n1C	inactive
CCc1nnc(NC(=O)CC(=O)Nc2ccccc2C(=O)O)s1	inconclusive: 0.411 µM [inhibitor, partial curve]
CCn1c(=O)cc(OCC(=O)N2CCc3ccccc32)c2ccccc21	inconclusive: 18.4 µM [inhibitor, single point]
COc1ccc(OC)c(/C=C2\S/C(=N/NC(=O)c3ccc4ccccc4c3)NC2=O)c1	inconclusive: 35.5 µM [activator, single point]
OC(CNCc1ccco1)Cn1c2ccccc2c2ccccc21 (configuration not stated)	active: 16.4 µM
O=C(N/N=C/c1cccs1)c1c[nH]c2ccccc12	inconclusive: 2.51 µM [activator, partial curve, poor fit]
Cc1nc(NC(=O)c2cccnc2)ccc1Br	inconclusive: 5.62 µM [activator, single point]
CC1(C)NC(=O)N(CCCOc2ccc3c(c2)CCC3)C1=O	inactive
O=C(c1ccsc1)N1CCCC(N2CCN(c3cccc(Cl)c3)CC2)C1 (configuration not stated)	inconclusive: 35.5 µM [inhibitor, single point]
CCc1ccc(NC(=O)Cn2c(=O)n(CCC(=O)NCCc3ccc(OC)c(OC)c3)c(=O)c3ccccc32)cc1	inactive
CCOC(=O)c1[nH]c2ccc(OC)cc2c1NC(=S)N1CCN(c2ccc(F)cc2)CC1	inconclusive: 0.891 µM [activator, partial curve, poor fit]
CCC(C)S(=O)(=O)c1oc(-c2ccc(F)cc2)nc1S(=O)(=O)c1ccc(F)cc1 (configuration not stated)	inconclusive: 11.2 µM [inhibitor, single point]
CCc1nc(Nc2ccccc2F)c2oc3ccccc3c2n1	inconclusive: 35.5 µM [inhibitor, single point]
Cc1ccc(C)c(NS(=O)(=O)c2ccc(OCC(=O)NCc3cccnc3)cc2)c1	inactive
O=C1CCC(=O)N1c1nc2nc(-c3ccccc3)cc(-c3ccccc3)n2n1	inactive
CCOC(=O)c1cc(-c2cccc(C(F)(F)F)c2)nc2nc(SC)[nH]c(=O)c12	inconclusive: 5.62 µM [inhibitor, single point]

2 of these compounds, set out differently:
Compound | Potency
CC1CCCCC1NC(=O)CSC1=Nc2ccccc2C2CC=NN12 (configuration not stated) | inconclusive: 8.91 µM [inhibitor, partial curve, poor fit]
CCOc1ccc2nc(Nc3nc(CSc4nnnn4-c4ccccc4)cc(=O)[nH]3)nc(C)c2c1 | inconclusive: 10.3 µM [inhibitor, partial curve, poor fit]
